Paper PMC8594108, “In vitro growth inhibitory activity of Medicines for Malaria Venture pathogen box compounds against Leishmania aethiopica” (BMC Pharmacology & Toxicology, 2021)
Read-outs that look alike come from different tables or passages of the source.

What was measured:
Assay type in all cases: cell-based
[1] = tested on: L. aethiopica promastigotes; test: Primary antipromastigote assay (resazurin based); conditions: Leishmania aethiopica, 72 h
Method: Test compounds were diluted in 96-well microculture plate containing 100 μL complete M199 medium. […] The Parasite density was kept constant at 1 × 10^5 per well. After 68 h of incubation, 10 μL of fluorochrome resazurin solution (Sigma-Aldrich, Co., St. […] The percentage of inhibition (%) was calculated for each concentration using the following formula: Inhibition%=100−Fluorescence in duplicate drug wells-Fluorescence in blank wells/Fluorescence control wells−Fluorescence in blank wells∗100

Haemolysis test = conditions: sheep, sheep red blood cells (2% blood suspension), 1.56–25 μM, 37 °C, read-out: Cytotoxicity, CC50, Sheep RBC
Method: The mixture was then centrifuged at 1000 g for 10 min. 75 μL of the resulting supernatant were transferred to 96-well plates and the absorbance readings obtained at 540 nm using Victor3 Multilabel Counter (PerkinElmer, Waltham, USA).

[2] = THP-1 cell cytotoxicity assay (resazurin); conditions: human, THP-1 cells
Method: Approximately 2 × 10^5 THP-1 cell suspension were added to 96-well microplate containing serially diluted 50 μL test compounds. Microplates were then incubated for 68 h at 37 °C in a 5% CO2 air mixture. Cell viability was determined with the resazurin- based fluorescence assay measured after a total incubation time of 72 h. The estimated median cell cytotoxicity (CC50) was calculated for each concentration using the formula: Cell viability%=Fluorescence in duplicate drug wells-Fluorescence blank wells/Fluorescence in control wells−Fluorescence blank wells∗100 The selectivity index of compounds was calculated from the ratio of the CC50 value determined in THP1 cells to the IC50 value determined from the dose-response curves in promastigote and amastigote assay using the following formula. Selectivity indexSI=CC50THP1cells/IC50promastigotes or amstigotes

IC50 ([1]; dose titration 0.03 to 1 μM, average of two independent experiments in triplicate, read-out: IC50 (95% CI) against Leishmania aethiopica promastigotes): 0.483 µM
SMILES: CN1CCCC1CCO[C@](C)(c1ccccc1)c1ccc(Cl)cc1 (some centres unmarked) [MMV637229]
inhibition at 1 µM ([1]; hit map sheet with colour categories, negative values shown as 0.00, read-out: Percentage of inhibition against Leishmania aethiopica promastigotes): 83.6%
inhibition at 1 µM ([1]; hit map sheet without colour categories, negative values kept, read-out: Percentage of inhibition against Leishmania aethiopica promastigotes): 83.6%
CC50 at 2 h (Haemolysis test): > 25 µM
CC50 at 72 h [2]: > 25 µM
